Article PMC12520357 (2025)

Amino acid sequences for entries named in this document (tags omitted).
UniProt P32598: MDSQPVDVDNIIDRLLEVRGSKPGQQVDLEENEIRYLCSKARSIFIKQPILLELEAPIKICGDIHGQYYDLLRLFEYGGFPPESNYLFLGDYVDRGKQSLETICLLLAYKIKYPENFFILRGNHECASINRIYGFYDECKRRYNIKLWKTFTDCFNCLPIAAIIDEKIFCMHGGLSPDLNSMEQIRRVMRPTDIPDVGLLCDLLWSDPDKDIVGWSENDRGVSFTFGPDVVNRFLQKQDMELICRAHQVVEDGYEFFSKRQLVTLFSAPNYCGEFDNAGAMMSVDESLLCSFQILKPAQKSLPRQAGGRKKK

B1: Rod1 (protein, UniProt Q02805 1-837)
chain: MFSSSSRPSKEPLLFDIRLRNLDNDVLLIKGPPDEASSVLLSGTIVLSITEPIQIKSLALRLFGRLRLNIPTVLQTVHGPHKRYSKFERNIYSHFWDDFNIKSYFQNLYDNHNNGKITISSKSSTNLAALPKRKRALSTASLISSNGQTSASKNYHTLVKGNYEFPFSAIIPGSLVESVEGLPNAAVTYALEATIERPKQPDLICKKHLRVIRTLAIDAVELSETVSVDNSWPEKVDYTISIPTKAIAIGSSTMINILIVPILKGLKLGPVRISLVENSQYCGSYGGVINQERMVAKLKLKDPLKHVAQIKKKRSLNEAADEGVDTDTGEFQDKWEVRALLNIPASLTKCSQDCRILSNIKVRHKIKFTISLLNPDGHISELRAALPVQLFISPFVPVNVKTSDVIERTLKTFGPSYQVTSQHDNSFSSKNFVDDSEEDVIFQRSASALQLSSMPTIVSGSTLNINSTDAEATAVADTTMVTSLMVPPNYGNHVYDRVYGEVTNEDETSASASSSAVESQAIHNIQNLYISDSNNSNNPILAPNPQIKIEDDSLNNCDSRGDSVNNSNLNLVNSNLTISENWNNNSPSANRYNNIINAGLNSPSLTPSFAHLSRRNSYSRQTSSTSLKNDLELTDLSRVPSYDKAMKSDMIGEDLPPAYPEEELGVQENKKIELERPQILHHKSTSSLLPLPGSSKSSNNLKRSSSRTHLSHSPLPRNNSGSSVSLQQLARNNTDSSFNLNLSFTSAKSSTGSRHFPFNMTTSFTSNSSSKNNSHFDKTDSTSDANKPREEENYTSATHNRRSRSSSVRSNNSNSPLRQGTGSFANLMEMFTKRDRS
B2: Snf1 (protein, UniProt P06782 1-633)
chain: MSSNNNTNTAPANANSSHHHHHHHHHHHHHGHGGSNSTLNNPKSSLADGAHIGNYQIVKTLGEGSFGKVKLAYHTTTGQKVALKIINKKVLAKSDMQGRIEREISYLRLLRHPHIIKLYDVIKSKDEIIMVIEYAGNELFDYIVQRDKMSEQEARRFFQQIISAVEYCHRHKIVHRDLKPENLLLDEHLNVKIADFGLSNIMTDGNFLKTSCGSPNYAAPEVISGKLYAGPEVDVWSCGVILYVMLCRRLPFDDESIPVLFKNISNGVYTLPKFLSPGAAGLIKRMLIVNPLNRISIHEIMQDDWFKVDLPEYLLPPDLKPHPEEENENNDSKKDGSSPDNDEIDDNLVNILSSTMGYEKDEIYESLESSEDTPAFNEIRDAYMLIKENKSLIKDMKANKSVSDELDTFLSQSPPTFQQQSKSHQKSQVDHETAKQHARRMASAITQQRTYHQSPFMDQYKEEDSTVSILPTSLPQIHRANMLAQGSPAASKISPLVTKKSKTRWHFGIRSRSYPLDVMGEIYIALKNLGAEWAKPSEEDLWTIKLRWKYDIGNKTNTNEKIPDLMKMVIQLFQIETNNYLVDFKFDGWESSYGDDTTVSNISEDEMSTFSAYPFLHLTTKLIMELAVNSQSN

The molecules below were run against T1, Reg1-FLAG (wild type) (S. cerevisiae) (UniProt Q00816) (assay: affinity purification with mass spectrometry; Reg1-FLAG (WT or W165G) precipitated on anti-FLAG M2 agarose from native yeast lysates before and after treatment of the cells with 2DG (10 min in the text, 15' in the legend); label-free quantitative proteomics, n = 4).
T1 sequence: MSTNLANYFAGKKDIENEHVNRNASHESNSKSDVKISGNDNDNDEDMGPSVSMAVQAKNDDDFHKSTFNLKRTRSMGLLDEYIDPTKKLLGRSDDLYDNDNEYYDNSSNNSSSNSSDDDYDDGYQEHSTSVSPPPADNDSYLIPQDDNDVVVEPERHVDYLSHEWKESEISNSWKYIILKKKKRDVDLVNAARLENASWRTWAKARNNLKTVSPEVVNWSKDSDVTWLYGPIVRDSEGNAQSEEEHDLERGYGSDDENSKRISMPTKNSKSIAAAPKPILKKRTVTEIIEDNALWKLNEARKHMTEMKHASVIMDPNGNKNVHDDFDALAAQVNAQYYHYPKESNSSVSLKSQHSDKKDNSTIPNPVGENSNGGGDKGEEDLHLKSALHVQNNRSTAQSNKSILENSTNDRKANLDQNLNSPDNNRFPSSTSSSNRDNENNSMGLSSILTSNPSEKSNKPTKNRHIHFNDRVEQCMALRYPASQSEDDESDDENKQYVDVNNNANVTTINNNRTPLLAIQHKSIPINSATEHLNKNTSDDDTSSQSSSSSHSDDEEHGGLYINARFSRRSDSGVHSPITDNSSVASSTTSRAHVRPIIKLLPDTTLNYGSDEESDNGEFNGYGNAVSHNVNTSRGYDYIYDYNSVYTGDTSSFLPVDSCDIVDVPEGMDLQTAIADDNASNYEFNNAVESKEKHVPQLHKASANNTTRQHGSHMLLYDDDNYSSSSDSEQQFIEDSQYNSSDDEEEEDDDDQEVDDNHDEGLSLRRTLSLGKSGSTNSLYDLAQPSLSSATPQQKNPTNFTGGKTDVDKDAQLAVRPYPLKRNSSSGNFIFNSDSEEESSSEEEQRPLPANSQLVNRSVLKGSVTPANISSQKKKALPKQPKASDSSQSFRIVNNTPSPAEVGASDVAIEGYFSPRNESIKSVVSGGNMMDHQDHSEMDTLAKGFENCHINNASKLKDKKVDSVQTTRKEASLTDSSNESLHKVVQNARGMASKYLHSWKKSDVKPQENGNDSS

binding, binds:
Glc7 (from UniProt P32598 1-312), B1, B2

Results are given in words; binding and its absence hold for the method and conditions named. In cells and extracts the contact can be indirect. Here binding means that the protein was enriched with, or labelled near, the bait; the list need not be complete. Sequences can lack the tags named with a protein.
